Data as given in PubChem BioAssay AID1508597 (Cure First, 2020).
This is an unselected part of about 2,100 deposited reagents. 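Calls flag viability under 80% in either arm, not effects specific to rucaparib; the reference for percent is not stated.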 Not given: the 100% reference.

Screen: 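Survival screen with siRNA in ovarian cancer cells derived from patients, with or without rucaparib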 (primary screen)
System: human ovarian carcinoma lines grown from tumours: OCI-P5x (papillary serous) and OCI-C5x (clear cell)
Knock-down reagent: siRNA pool against human genes, 1.25 pmol siRNA per well
Time to read-out: 72 h or 96 h, depending on the cell culture
Treatment: rucaparib 20 µM (about IC30) or vehicle, present until read-out
Measured: 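ATP luminescence measured at 72 or 96 h according to the culture, then normalised and expressed as percent viability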
Scale: viability, normalised: higher = more viable cells remaining
Rule for the call: 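a well counts as a hit if its normalised viability is under 80 percent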
Meaning of the calls: active = viability under 80%; inactive = viability 80% or more

HELLS (helicase, lymphoid specific), rucaparib or vehicle Rucaparib, cell line OCI-C5x (clear cell), technical replicate 1
- viability, normalised (%): 43
- activity call: active

HELLS (helicase, lymphoid specific), rucaparib or vehicle Rucaparib, cell line OCI-C5x (clear cell), technical replicate 2
- viability, normalised (%): 35
- activity call: active

HELLS (helicase, lymphoid specific), rucaparib or vehicle Rucaparib, cell line OCI-C5x (clear cell), technical replicate 3
- viability, normalised (%): 47.2
- activity call: active

HELLS (helicase, lymphoid specific), rucaparib or vehicle Rucaparib, cell line OCI-P5x (serous), technical replicate 1
- viability, normalised (%): 73.9
- activity call: active

HELLS (helicase, lymphoid specific), rucaparib or vehicle Rucaparib, cell line OCI-P5x (serous), technical replicate 2
- viability, normalised (%): 70.5
- activity call: active

HELLS (helicase, lymphoid specific), rucaparib or vehicle Rucaparib, cell line OCI-P5x (serous), technical replicate 3
- viability, normalised (%): 78.1
- activity call: active

HELLS (helicase, lymphoid specific), rucaparib or vehicle Vehicle, cell line OCI-C5x (clear cell), technical replicate 1
- viability, normalised (%): 50.6
- activity call: active

HELLS (helicase, lymphoid specific), rucaparib or vehicle Vehicle, cell line OCI-C5x (clear cell), technical replicate 2
- viability, normalised (%): 43.9
- activity call: active

HELLS (helicase, lymphoid specific), rucaparib or vehicle Vehicle, cell line OCI-C5x (clear cell), technical replicate 3
- viability, normalised (%): 54.4
- activity call: active

HELLS (helicase, lymphoid specific), rucaparib or vehicle Vehicle, cell line OCI-P5x (serous), technical replicate 1
- viability, normalised (%): 77.4
- activity call: active

HELLS (helicase, lymphoid specific), rucaparib or vehicle Vehicle, cell line OCI-P5x (serous), technical replicate 2
- viability, normalised (%): 86.9
- activity call: inactive

HELLS (helicase, lymphoid specific), rucaparib or vehicle Vehicle, cell line OCI-P5x (serous), technical replicate 3
- viability, normalised (%): 111
- activity call: inactive

YEATS4 (YEATS domain containing 4), rucaparib or vehicle Rucaparib, cell line OCI-C5x (clear cell), technical replicate 1
- viability, normalised (%): 66.6
- activity call: active

YEATS4 (YEATS domain containing 4), rucaparib or vehicle Rucaparib, cell line OCI-C5x (clear cell), technical replicate 2
- viability, normalised (%): 49.3
- activity call: active

YEATS4 (YEATS domain containing 4), rucaparib or vehicle Rucaparib, cell line OCI-C5x (clear cell), technical replicate 3
- viability, normalised (%): 46.9
- activity call: active

YEATS4 (YEATS domain containing 4), rucaparib or vehicle Rucaparib, cell line OCI-P5x (serous), technical replicate 1
- viability, normalised (%): 46.8
- activity call: active

YEATS4 (YEATS domain containing 4), rucaparib or vehicle Rucaparib, cell line OCI-P5x (serous), technical replicate 2
- viability, normalised (%): 54.7
- activity call: active

YEATS4 (YEATS domain containing 4), rucaparib or vehicle Rucaparib, cell line OCI-P5x (serous), technical replicate 3
- viability, normalised (%): 55.7
- activity call: active

YEATS4 (YEATS domain containing 4), rucaparib or vehicle Vehicle, cell line OCI-C5x (clear cell), technical replicate 1
- viability, normalised (%): 40.8
- activity call: active

YEATS4 (YEATS domain containing 4), rucaparib or vehicle Vehicle, cell line OCI-C5x (clear cell), technical replicate 2
- viability, normalised (%): 70.8
- activity call: active

YEATS4 (YEATS domain containing 4), rucaparib or vehicle Vehicle, cell line OCI-C5x (clear cell), technical replicate 3
- viability, normalised (%): 58.1
- activity call: active

YEATS4 (YEATS domain containing 4), rucaparib or vehicle Vehicle, cell line OCI-P5x (serous), technical replicate 1
- viability, normalised (%): 49.4
- activity call: active

YEATS4 (YEATS domain containing 4), rucaparib or vehicle Vehicle, cell line OCI-P5x (serous), technical replicate 2
- viability, normalised (%): 50.4
- activity call: active

YEATS4 (YEATS domain containing 4), rucaparib or vehicle Vehicle, cell line OCI-P5x (serous), technical replicate 3
- viability, normalised (%): 98.4
- activity call: inactive

TP73 (tumor protein p73), rucaparib or vehicle Rucaparib, cell line OCI-C5x (clear cell), technical replicate 1
- viability, normalised (%): 59.2
- activity call: active

TP73 (tumor protein p73), rucaparib or vehicle Rucaparib, cell line OCI-C5x (clear cell), technical replicate 2
- viability, normalised (%): 64.2
- activity call: active

TP73 (tumor protein p73), rucaparib or vehicle Rucaparib, cell line OCI-C5x (clear cell), technical replicate 3
- viability, normalised (%): 45.3
- activity call: active

TP73 (tumor protein p73), rucaparib or vehicle Rucaparib, cell line OCI-P5x (serous), technical replicate 1
- viability, normalised (%): 63.8
- activity call: active

TP73 (tumor protein p73), rucaparib or vehicle Rucaparib, cell line OCI-P5x (serous), technical replicate 2
- viability, normalised (%): 58.1
- activity call: active

TP73 (tumor protein p73), rucaparib or vehicle Rucaparib, cell line OCI-P5x (serous), technical replicate 3
- viability, normalised (%): 55.8
- activity call: active

TP73 (tumor protein p73), rucaparib or vehicle Vehicle, cell line OCI-C5x (clear cell), technical replicate 1
- viability, normalised (%): 29.3
- activity call: active

TP73 (tumor protein p73), rucaparib or vehicle Vehicle, cell line OCI-C5x (clear cell), technical replicate 2
- viability, normalised (%): 48.8
- activity call: active

TP73 (tumor protein p73), rucaparib or vehicle Vehicle, cell line OCI-C5x (clear cell), technical replicate 3
- viability, normalised (%): 39.6
- activity call: active

TP73 (tumor protein p73), rucaparib or vehicle Vehicle, cell line OCI-P5x (serous), technical replicate 1
- viability, normalised (%): 49.3
- activity call: active

TP73 (tumor protein p73), rucaparib or vehicle Vehicle, cell line OCI-P5x (serous), technical replicate 2
- viability, normalised (%): 49.6
- activity call: active

TP73 (tumor protein p73), rucaparib or vehicle Vehicle, cell line OCI-P5x (serous), technical replicate 3
- viability, normalised (%): 57.9
- activity call: active

6 of these entries, set out differently.
| gene symbol | rucaparib or vehicle | cell line | technical replicate | viability, normalised (%) | activity call |
| --- | --- | --- | --- | --- | --- |
| YEATS4 (YEATS domain containing 4) | Vehicle | OCI-C5x (clear cell) | 2 | 70.8 | active |
| YEATS4 (YEATS domain containing 4) | Vehicle | OCI-C5x (clear cell) | 3 | 58.1 | active |
| YEATS4 (YEATS domain containing 4) | Vehicle | OCI-P5x (serous) | 1 | 49.4 | active |
| YEATS4 (YEATS domain containing 4) | Vehicle | OCI-P5x (serous) | 2 | 50.4 | active |
| YEATS4 (YEATS domain containing 4) | Vehicle | OCI-P5x (serous) | 3 | 98.4 | inactive |
| TP73 (tumor protein p73) | Rucaparib | OCI-C5x (clear cell) | 1 | 59.2 | active |
